Results are given in words; binding and its absence hold for the method and conditions named. Binding seen in cells or lysates may run through a third protein. Some entries that bind do so weakly or less than the wild type.
What was measured:
Test in all cases: co-IP; human GPR56^N-hFc proteins (concentrated conditioned media) with purified human collagen III (Abcam); Protein-G beads; blot with anti-collagen III, anti-hFc as loading control; only the binder purified
[1] = target: human GPR56^N-hFc C91S (human) (UniProt Q9Y653)
[2] = target: human GPR56^N-hFc Y88C (human) (UniProt Q9Y653)
[3] = target: human GPR56^N-hFc R38Q (human) (UniProt Q9Y653)
[4] = target: human IgG Fc-tagged human GPR56^N (hGPR56^N-hFc), wild type (human) (UniProt Q9Y653)

Chains of the proteins cited; added tags and fusions are not shown. Lines headed by an entry give the natural chain unless they say otherwise; changes in a name come on top. A line that says so, or that is headed by a name, gives the form on record, which may keep a tag or linker. Residues count along the entry.
human IgG Fc-tagged human GPR56^N (hGPR56^N-hFc), wild type (Q9Y653, residues 27-382): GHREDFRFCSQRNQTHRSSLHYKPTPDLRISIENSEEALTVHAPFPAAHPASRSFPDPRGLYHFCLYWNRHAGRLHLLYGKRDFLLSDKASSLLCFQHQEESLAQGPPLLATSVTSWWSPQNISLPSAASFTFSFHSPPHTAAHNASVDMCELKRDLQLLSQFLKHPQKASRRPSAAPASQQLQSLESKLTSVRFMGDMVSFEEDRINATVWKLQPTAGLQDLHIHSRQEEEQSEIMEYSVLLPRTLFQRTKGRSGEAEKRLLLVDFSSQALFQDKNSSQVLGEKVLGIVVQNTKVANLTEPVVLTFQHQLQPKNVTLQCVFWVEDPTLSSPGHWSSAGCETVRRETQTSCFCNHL
human GPR56^N-hFc C91S (Q9Y653, form named): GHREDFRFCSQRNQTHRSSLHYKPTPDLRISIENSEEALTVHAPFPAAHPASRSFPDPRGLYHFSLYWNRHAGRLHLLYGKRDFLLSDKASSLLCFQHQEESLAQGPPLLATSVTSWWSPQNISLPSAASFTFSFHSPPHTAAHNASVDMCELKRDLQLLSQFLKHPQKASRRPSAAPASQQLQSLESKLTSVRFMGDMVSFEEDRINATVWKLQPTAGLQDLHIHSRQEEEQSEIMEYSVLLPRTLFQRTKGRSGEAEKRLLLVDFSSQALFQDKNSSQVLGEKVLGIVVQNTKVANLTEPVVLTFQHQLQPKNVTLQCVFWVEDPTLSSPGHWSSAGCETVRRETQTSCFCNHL
human GPR56^N-hFc Y88C (Q9Y653, form named): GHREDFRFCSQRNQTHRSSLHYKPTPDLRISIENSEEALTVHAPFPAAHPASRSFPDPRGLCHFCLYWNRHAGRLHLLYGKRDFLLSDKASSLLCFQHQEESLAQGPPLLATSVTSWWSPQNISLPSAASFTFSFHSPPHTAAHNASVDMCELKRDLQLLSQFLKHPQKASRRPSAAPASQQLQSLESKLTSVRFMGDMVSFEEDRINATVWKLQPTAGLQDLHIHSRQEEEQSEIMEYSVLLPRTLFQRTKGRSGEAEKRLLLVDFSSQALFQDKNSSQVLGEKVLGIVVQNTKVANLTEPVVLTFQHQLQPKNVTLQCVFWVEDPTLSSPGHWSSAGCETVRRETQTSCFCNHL
human GPR56^N-hFc R38Q (Q9Y653, form named): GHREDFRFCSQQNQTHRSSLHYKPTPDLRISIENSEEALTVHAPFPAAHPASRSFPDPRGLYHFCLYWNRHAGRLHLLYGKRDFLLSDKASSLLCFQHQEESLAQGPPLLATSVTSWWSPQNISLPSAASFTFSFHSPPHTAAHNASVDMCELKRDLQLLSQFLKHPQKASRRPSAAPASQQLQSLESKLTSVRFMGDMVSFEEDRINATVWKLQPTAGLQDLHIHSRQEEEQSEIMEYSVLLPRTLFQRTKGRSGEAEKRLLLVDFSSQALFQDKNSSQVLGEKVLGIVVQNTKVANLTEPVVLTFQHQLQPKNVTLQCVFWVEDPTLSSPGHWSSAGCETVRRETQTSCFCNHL
UniProt P02461, residues 154-1221: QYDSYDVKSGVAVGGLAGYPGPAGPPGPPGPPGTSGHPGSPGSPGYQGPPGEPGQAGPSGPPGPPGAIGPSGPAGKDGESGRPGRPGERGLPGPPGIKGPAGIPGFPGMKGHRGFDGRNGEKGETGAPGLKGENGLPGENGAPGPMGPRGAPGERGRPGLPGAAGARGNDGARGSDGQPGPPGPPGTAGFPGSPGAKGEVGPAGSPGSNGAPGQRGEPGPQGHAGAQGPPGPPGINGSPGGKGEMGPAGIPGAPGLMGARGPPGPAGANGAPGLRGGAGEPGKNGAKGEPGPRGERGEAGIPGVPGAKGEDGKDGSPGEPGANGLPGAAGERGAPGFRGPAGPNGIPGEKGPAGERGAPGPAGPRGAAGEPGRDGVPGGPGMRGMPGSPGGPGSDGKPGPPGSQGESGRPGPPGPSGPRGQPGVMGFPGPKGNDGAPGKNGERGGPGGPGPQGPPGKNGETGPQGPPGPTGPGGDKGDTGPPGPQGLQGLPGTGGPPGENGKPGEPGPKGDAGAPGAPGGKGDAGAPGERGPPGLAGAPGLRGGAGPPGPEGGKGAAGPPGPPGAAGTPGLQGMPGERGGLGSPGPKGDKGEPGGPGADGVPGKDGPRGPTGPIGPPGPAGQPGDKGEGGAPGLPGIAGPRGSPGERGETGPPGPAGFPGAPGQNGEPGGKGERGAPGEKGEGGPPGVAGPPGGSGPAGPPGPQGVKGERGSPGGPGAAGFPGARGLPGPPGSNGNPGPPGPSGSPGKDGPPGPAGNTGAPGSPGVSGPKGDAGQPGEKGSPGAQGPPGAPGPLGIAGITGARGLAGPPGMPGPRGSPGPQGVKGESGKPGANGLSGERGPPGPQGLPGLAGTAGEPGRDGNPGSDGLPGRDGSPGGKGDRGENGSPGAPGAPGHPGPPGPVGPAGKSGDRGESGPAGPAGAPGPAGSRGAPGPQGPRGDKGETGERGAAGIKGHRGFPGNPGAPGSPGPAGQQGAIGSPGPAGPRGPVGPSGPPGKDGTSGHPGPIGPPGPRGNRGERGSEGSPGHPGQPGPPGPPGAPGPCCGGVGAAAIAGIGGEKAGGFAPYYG

binding [1]: no binding
binding [2]: no binding
binding [3]: no binding
binding [4]: binds
Substance: purified human collagen III (Abcam) (from UniProt P02461 154-1221) (ligand)
